PubChem BioAssay AID686937, Drosophila RNAi Screening Center | 2013
The deposit covers about 23,000 reagents; shown is an unselected part of those that have a named target and a result. 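Reduced-secretion tags in replicate 1 do not always agree with the z-scores; no criterion for assigning the tags was given.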 A plus sign joins genes that one reagent is predicted to hit. Further read-outs or replicates are left out here. Not stated in the record: the amount of reagent.

Screen: 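Genes whose loss weakens secretory pathway function in fly cells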 (primary screen)
Cells: Drosophila S2 cells expressing secreted horseradish peroxidase
Reagent: long dsRNA against Drosophila genes
Duration: about 5.5 days (5 days dsRNA, then 12 h reporter induction)
Challenge: reporter expression induced after 5 days of dsRNA, read 12 h later; inducer not stated
Read-out: 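After 5 days of dsRNA and 12 h of reporter induction, medium peroxidase read by chemiluminescence and scored as per-plate z-score; higher values mean more reporter released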
Direction: z-score: higher = more reporter secreted into medium

CG17625 [DRSC15249] | z-score, replicate 1: 0.37
CG5342 [DRSC15776] | z-score, replicate 1: 0.05
Lar [DRSC01707] | z-score, replicate 1: -0.11
Lar [DRSC03361] | z-score, replicate 1: 0.19
CG11018 [DRSC06024] | z-score, replicate 1: 0.12
wde [DRSC05955] | z-score, replicate 1: -0.09
Uggt [DRSC11315] | z-score, replicate 1: 0.17
CG11655 [DRSC19413] | z-score, replicate 1: 0.46
Edg91 [DRSC16657] | z-score, replicate 1: -0.41
CG14960 [DRSC08419] | z-score, replicate 1: 0.33
pnut [DRSC07666] | z-score, replicate 1: 0.05
CG6761 [DRSC10705] | z-score, replicate 1: 0.43
CG13364 [DRSC17898] | z-score, replicate 1: 0.57
CG13364 [DRSC21263] | z-score, replicate 1: 0.33
CG6961 + CG18259 [DRSC19799] | z-score, replicate 1: 0.05
CG6961 + CG18259 [DRSC20019] | z-score, replicate 1: 0.51
nAChRbeta3 [DRSC00325] | z-score, replicate 1: 0.43
eIF3c [DRSC06905] | z-score, replicate 1: -3.14
CG15027 [DRSC19608] | z-score, replicate 1: 0
CG11555 [DRSC00315] | z-score, replicate 1: 0.08
Hgsnat [DRSC18405] | z-score, replicate 1: 0.36
CG7781 [DRSC03068] | z-score, replicate 1: 0.4
CG1142 [DRSC12531] | z-score, replicate 1: 0.2
Actn3 [DRSC14106] | z-score, replicate 1: 0.07
scpr-A + scpr-C [DRSC15737] | z-score, replicate 1: 0.33
EloC [DRSC07423] | z-score, replicate 1: -1.51
ss [DRSC17069] | z-score, replicate 1: 0.6
CG16800 [DRSC02518] | z-score, replicate 1: -0.56
CG43755 [DRSC00012] | z-score, replicate 1: -0.12
r + CG13012 [DRSC19531] | z-score, replicate 1: -0.46
unc-5 [DRSC05545] | z-score, replicate 1: 0.16
unc-5 [DRSC07711] | z-score, replicate 1: 0.27
unc-5 [DRSC07712] | z-score, replicate 1: 0.3
CG14327 [DRSC14806] | z-score, replicate 1: -0.24
CG34107 [DRSC14554] | z-score, replicate 1: 0.4
CG31189 [DRSC16198] | z-score, replicate 1: 0.1
CG31098 [DRSC14259] | z-score, replicate 1: 0
Eig71Eg [DRSC11154] | z-score, replicate 1: 0.38
CG32454 [DRSC11652] | z-score, replicate 1: 0.26
Pvf1 [DRSC20024] | z-score, replicate 1: 0.23
CG1789 [DRSC18140] | z-score, replicate 1: 0.37
Epac [DRSC04969] | z-score, replicate 1: 0.65
Epac [DRSC04996] | z-score, replicate 1: 0.19
Epac [DRSC04997] | z-score, replicate 1: 0.41
Capa [DRSC15058] | z-score, replicate 1: 0.4
CG3808 [DRSC10377] | z-score, replicate 1: 0.46
Bgb [DRSC08148] | z-score, replicate 1: -0.97
CG6357 [DRSC06979] | z-score, replicate 1: 0.27
CG9993 [DRSC04599] | z-score, replicate 1: -0.21
CG12934 [DRSC06247] | z-score, replicate 1: 0.56
CG13375 [DRSC18621] | z-score, replicate 1: 0.46

Reformatted: 3 of the entries above.
{"target":"eIF3c","amplicon":"DRSC06905","z-score, replicate 1":-3.14}
{"target":"CG15027","amplicon":"DRSC19608","z-score, replicate 1":0}
{"target":"CG11555","amplicon":"DRSC00315","z-score, replicate 1":0.08}
